Data as given in PubChem BioAssay AID504834 (National Center for Advancing Translational Sciences (NCATS), 2011).
The campaign covered roughly 320,000 compounds. About 22,000 (6.9%) were called active. The shares of active, inactive and inconclusive entries below differ from those in the screen. Calls follow the shape of the dose curve; as a rule, active = well fitted inhibition curve with a large enough effect; inconclusive = small, poorly fitted or top-dose-only effect, or another doubt; inactive = no such curve, though single readings can be large or run the other way. Where the call is inconclusive, the potency comes from a doubtful curve fit.

Assay: Primary qHTS for delayed death inhibitors of the malarial parasite plastid, 96 hour incubation
Conditions: P. falciparum luciferase reporter growth; series mostly up to 28.7 µM; activity change, negative = inhibition: at the top concentration
Procedure, shortened: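 P. falciparum expressing integrated firefly luciferase, in erythrocytes at 2% hematocrit, 0.05% parasitemia, incubated with compounds 96 h at 37 C, 5% CO2. Growth inhibition read as loss of luminescence; two-generation exposure targets delayed-death apicoplast inhibitors.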
% is scaled to controls: 0 for no effect and ±100 for the full control effect; potency is read from the fitted curve at half-maximal effect.

Structure (SMILES) | Potency | activity change, negative = inhibition
CCc1ccc(Nc2nnc(SCC(=O)Nc3cccc(S(=O)(=O)NC4=NCCCCC4)c3)s2)cc1 | inconclusive: 18.5 µM [inhibitor, single point] | 
CCCC(=O)Nc1nnc(-c2ccc3c(c2)OCO3)s1 |  | inactive: 83.8%
CN(c1ccccc1C(=O)Nc1ccc(S(=O)(=O)N2CCCC2)cc1)S(C)(=O)=O | inconclusive: 18.5 µM [inhibitor, single point] | 
Cc1cccc2sc(N(CCCN(C)C)C(=O)CCS(=O)(=O)c3ccccc3)nc12 |  | inactive: 5.57%
O=C(Nc1ccc(S(=O)(=O)N2CCOCC2)cc1)c1ccc([N+](=O)[O-])o1 | inconclusive: 10.4 µM [inhibitor, single point] | 
Cc1ccccc1NC(=O)Cn1cccc1 | inconclusive: 1.04 µM [inhibitor, partial curve, poor fit] | 
COc1ccc2nc(C)cc(Nc3cccc(C(=O)O)c3)c2c1 | inconclusive: 14.7 µM [inhibitor, partial curve] | 
Cc1ccc(-n2c(SCC(=O)c3c(N)n(C4CC4)c(=O)[nH]c3=O)nnc2N2CCOCC2)cc1 | inconclusive: 1.04 µM [inhibitor, full curve] | 
COc1ccc(-c2nc(-c3ccc(Br)cc3)no2)c(OC)c1 | inconclusive: 13.1 µM [inhibitor, partial curve] | 
Cc1ccc(-n2c(CNC(=O)c3cccs3)nnc2SCC(=O)NO)cc1 | inconclusive: 6.57 µM [inhibitor, partial curve, poor fit] | 
O=c1[nH]c(CN2CCN(c3ccccc3Cl)CC2)nc2ccsc12 | inconclusive: 18.5 µM [inhibitor, single point] | 
CCN(CC)S(=O)(=O)c1ccc(NC(=S)Nc2ccccc2)cc1 | inconclusive: 13.1 µM [inhibitor, partial curve, poor fit] | 
Cc1nc2cc(C(F)(F)F)ccc2n1C1CCN(CC(=O)N2CCCC2)CC1 |  | inactive: 39.9%
COc1ccc(COC(=O)NNC(=O)c2ccccc2Cl)cc1 | inconclusive: 18.5 µM [inhibitor, single point] | 
CN(C)S(=O)(=O)c1ccc(N2CCCC2)c(C(=O)NNC(=O)c2ccccc2)c1 | inconclusive: 18.5 µM [inhibitor, single point] | 
Cc1ccc(N2CC(C(=O)Nc3nnc(SCC(=O)NCC4CCCO4)s3)CC2=O)cc1C (configuration not stated) | inconclusive: 7.38 µM [inhibitor, partial curve, poor fit] | 
CCCOc1ccc(C(=O)Nc2ccc(S(=O)(=O)Nc3cc(C)nc(C)n3)cc2)cc1 | inconclusive: 0.522 µM [inhibitor, full curve, poor fit] | 
Cc1nc(N2CCN(Cc3ccc4c(c3)OCO4)CC2)[nH]c(=O)c1C | inconclusive: 11.7 µM [inhibitor, single point] | 
O=C(O)c1cc(O)c(O)c(O)c1 | active: 8.49 µM | 
COc1ccc(-n2cc(C#N)c(=O)n(Cc3ccc(F)cc3)c2=O)cc1 |  | inactive: -22.1%
CCn1cc(C(=O)NN)c(=O)c2cc(F)c(N3CCOCC3)cc21 | active: 11.7 µM | 
COCCOC1CCN(C(=O)c2ccc(OC)c(OC3CCN(C(C)C)CC3)c2)CC1 |  | inactive: -50.9%
Cc1cccc(NC(=O)C2C3CCCCC32)c1 (configuration not stated) | active: 0.185 µM | 
COc1cc(C(=O)N2CCN(c3ccccc3Cl)CC2)ccc1OCC(=O)N1CCOCC1 | inconclusive: 11.7 µM [inhibitor, single point] | 

Structure (SMILES) | Potency | activity change, negative = inhibition
O=C(CCS(=O)(=O)c1ccc(Br)cc1)Nc1ccc2c(c1)OCO2 | active: 0.465 µM | 
COc1ccc(CCNC(=O)CN2CCN(c3cccc(C(F)(F)F)c3)CC2)cc1 | inconclusive: 8.28 µM [inhibitor, single point] | 
C=CCOc1ccc2c(OC)c3ccoc3nc2c1OC | inconclusive: 4.65 µM [inhibitor, single point] | 
Cc1ncc(CN=Cc2ccc(Cl)cc2)c(N)n1 |  | inactive: 57.3%
Cc1ccc(S(=O)(=O)N2CCN(C(=O)Cc3ccc(S(=O)(=O)N4CCOCC4)s3)CC2)cc1 | active: 11.7 µM | 
O=C(OCc1nnc(-c2ccccc2)o1)c1cc(S(=O)(=O)N2CCOCC2)ccc1F |  | inactive: 19.3%
CCN(CC(=O)NCCCN1CCOCC1)S(=O)(=O)c1ccc(F)cc1 |  | inactive: 12.9%
O=C(O)c1ccccc1C(=O)NC1CCCCNC1=O (configuration not stated) |  | inactive: -0.123%
COCCCNC(=O)c1ccccc1Oc1ccccc1 |  | inactive: 29.2%
CC(C)CN1C(=O)C(=O)N(CC(=O)NC2CCCc3ccccc32)C1=O (configuration not stated) |  | inactive: 16%
O=C(COc1ccc2ccc(=O)oc2c1)N1CCN(c2ccccc2)CC1 |  | inactive: -7.45%
COc1ccc(C(NC(=O)c2cccc(F)c2)c2ccccc2)cc1 (configuration not stated) | inconclusive: 11.7 µM [inhibitor, single point] | 
CCC(OC(C)=O)c1cc2c(cc1[N+](=O)[O-])OCCO2 (configuration not stated) | inconclusive: 14.7 µM [inhibitor, partial curve, poor fit] | 
CCOC(=O)c1cnc(-c2ccccc2)nc1Oc1ccc(C)cc1 | inconclusive: 4.65 µM [inhibitor, partial curve, poor fit] | 
CC(=O)c1ccc(S(=O)(=O)Nc2c(C)nn(C)c2C)cc1 |  | inactive: 5.41%
Cc1ccc(NC(=O)C(c2ccccc2)C2CCCC2)cc1 (configuration not stated) | inconclusive: 20.8 µM [inhibitor, single point] | 
CCOC(=O)C1=NN(c2ccc(Cl)cc2)C(c2ccccc2)CC1=O (configuration not stated) | inconclusive: 9.28 µM [inhibitor, partial curve, poor fit] | 
COc1ccc(S(=O)(=O)N2CCCCC2)cc1NC(=O)c1ccc(N2CCCC2=O)cc1 | inconclusive: 11.7 µM [inhibitor, single point] | 
Cc1ccc(S(=O)(=O)CCSc2ccc(C(F)(F)F)cn2)cc1 | inconclusive: 18.5 µM [inhibitor, single point] | 
Cc1c(NC(=O)C(C)OC(=O)c2c3c(nc4ccccc24)CCC3)c(=O)n(-c2ccccc2)n1C (configuration not stated) | inconclusive: 10.4 µM [inhibitor, single point] | 
Cc1ccc(Sc2ncccc2COC(=O)NC(C)C)cc1 |  | inactive: 118%
CC(C)(C)N(Cc1ccccc1)C(=O)c1ccncc1 |  | inactive: -25.4%
CC(NC(=S)Nc1ccc(OC(F)F)cc1OC(F)F)C(C)(C)C (configuration not stated) | inconclusive: 11.7 µM [inhibitor, single point] | 
CCC(C)c1ccccc1NC(=O)CN(C)CCOc1ccc(Cl)cc1 (configuration not stated) | inconclusive: 10.4 µM [inhibitor, partial curve, poor fit] | 

Structure (SMILES) | Potency | activity change, negative = inhibition
C[C@@H](NC(=O)[C@@H]1Cc2ccccc2CN1C(=O)OC(C)(C)C)C(=O)NC1CCCC1 |  | inactive: 5.87%
OC1OC[C@@H](O)[C@H](O)[C@@H]1O (some centres not stated) |  | inactive: 18.7%
O=C(NNc1ccc(Cl)cc1)C1CCC1 | inconclusive: 0.117 µM [inhibitor, full curve, poor fit] | 
COc1ccccc1N1CC(C)(C)C(=O)N(C(=O)c2c(F)cccc2Cl)C1=S | inconclusive: 16.5 µM [inhibitor, single point] | 
O=C(N/N=C/c1ccoc1)c1ccccc1F | inconclusive: 0.0522 µM [inhibitor, partial curve, poor fit] | 
Cc1ccc(-c2cn(CCN)c(-c3ccncc3)n2)cc1 | inconclusive: 18.5 µM [inhibitor, single point] | 
CCCCn1c(=O)[nH]c(=O)c2c1nc(-c1ccccc1OC(F)F)n2C |  | inactive: -16.9%
COc1cccc(OCc2nc3ccccc3[nH]2)c1 | inconclusive: 1.31 µM [inhibitor, single point] | 
Cc1nn(-c2ccc(F)cc2)c(Cl)c1/C=C/C(=O)N1CCNC(=O)C1 | active: 13.1 µM | 
O=C(NCCN1CCN(S(=O)(=O)c2ccc(F)cc2)CC1)C(=O)NCc1ccccc1 | inconclusive: 10.4 µM [inhibitor, single point] | 
CC(C)(C)c1cc(OC(=O)Cc2ccccc2)ccc1O | inconclusive: 13.1 µM [inhibitor, single point] | 
O=C(Cc1cccc2ccccc12)Nc1ccc2oc(-c3ccccc3)nc2c1 |  | inactive: -21.5%
CCOc1ccc(NS(=O)(=O)c2cc(NC(=O)c3cccc(C)c3)ccc2Cl)cc1 | inconclusive: 18.5 µM [inhibitor, single point] | 
Cc1c(Cc2ccccc2)c(=O)oc2cc(OCC(=O)NCc3ccccn3)ccc12 | inconclusive: 1.65 µM [inhibitor, full curve] | 
Cc1ccc(C(=O)CCNc2ccc(Cl)cc2)o1 | active: 10.4 µM | 
CC(Cc1ccccc1)NC(=O)CSc1nc2nc3c(cc2c(=O)n1-c1ccccc1)COC(C)(C)C3 (configuration not stated) | inconclusive: 1.17 µM [inhibitor, partial curve, poor fit] | 
O=C(Nc1ccccc1)c1ccc(Br)c(S(=O)(=O)Nc2cccnc2)c1 | inconclusive: 18.5 µM [inhibitor, single point] | 
CCCCOC(=O)NC1CCS(=O)(=O)C1 (configuration not stated) | inconclusive: 11.7 µM [inhibitor, single point] | 
COc1ccccc1C(=O)NCCC(=O)Nc1ccc(S(=O)(=O)N2CC(C)CC(C)C2)cc1 (configuration not stated) | active: 14.7 µM | 
COc1ccccc1CCNC(=O)C(=O)Nc1cc2c3c(c1)C(C)C(=O)N3CCC2 (configuration not stated) | inconclusive: 2.08 µM [inhibitor, full curve] | 
COc1ccccc1NC(=O)c1ccc2snnc2c1 |  | inactive: -13.5%
O=C(COc1ccc(S(=O)(=O)NCc2ccccc2)cc1Cl)NCC1CCCO1 (configuration not stated) | inconclusive: 11.7 µM [inhibitor, single point] | 
COCC(C)Nc1nc(C)c(C(C)=O)s1 (configuration not stated) |  | inactive: 0.137%
Cc1ccc(C(=O)c2ccccc2C(=O)OCC(=O)N2C(C)CCCC2C)cc1 (configuration not stated) | inconclusive: 11.7 µM [inhibitor, single point] | 

Of the compounds above, these have a thiophene ring, fused or not:
Structure (SMILES) | Potency | activity change, negative = inhibition
Cc1ccc(-n2c(CNC(=O)c3cccs3)nnc2SCC(=O)NO)cc1 | inconclusive: 6.57 µM [inhibitor, partial curve, poor fit] | 
O=c1[nH]c(CN2CCN(c3ccccc3Cl)CC2)nc2ccsc12 | inconclusive: 18.5 µM [inhibitor, single point] | 
Cc1ccc(S(=O)(=O)N2CCN(C(=O)Cc3ccc(S(=O)(=O)N4CCOCC4)s3)CC2)cc1 | active: 11.7 µM | 
